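NCI-H358 cells carrying N-terminally eGFP-tagged delta133p53alpha, with eGFP fluorescence read at 24 hours and fitted across a concentration series.
The dilution series runs from about 7.7e-06 to 290 µM in 23 concentration columns.
Potency, read at half-maximal effect from the fitted activation curve; lower values mean a more potent compound.
Calls follow the dose-curve shape: a well-fitted activation curve with a large enough effect is active, and small, poorly fitted or top-dose-only effects are inconclusive.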

By UniProt entry, the sequences of proteins in these tests, tags left out.
UniProt P04637, whole entry, target on record: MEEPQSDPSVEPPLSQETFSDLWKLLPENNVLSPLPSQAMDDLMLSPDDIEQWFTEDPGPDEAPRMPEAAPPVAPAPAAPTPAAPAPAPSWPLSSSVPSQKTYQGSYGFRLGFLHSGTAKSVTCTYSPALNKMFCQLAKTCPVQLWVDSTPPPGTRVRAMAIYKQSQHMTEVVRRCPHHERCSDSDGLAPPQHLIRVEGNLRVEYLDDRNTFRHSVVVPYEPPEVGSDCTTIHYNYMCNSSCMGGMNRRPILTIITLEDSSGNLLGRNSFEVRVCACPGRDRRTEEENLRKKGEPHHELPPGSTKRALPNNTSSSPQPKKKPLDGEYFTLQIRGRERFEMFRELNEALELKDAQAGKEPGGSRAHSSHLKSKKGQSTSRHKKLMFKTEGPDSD

Values are in µM.
Every entry below has the call inconclusive.
Only part of the assay is shown, chiefly results filed as inconclusive.
A potency from a partial, single-point or poor curve is only a rough figure.

{"smiles": "CCN1/C(=C/C(C)=O)Sc2ccc(OC)cc21", "fitted potency (µM)": "2.686", "curve": "activator, full curve, poor fit"}
{"smiles": "Cn1cnc([N+](=O)[O-])c1Sc1ncnc2nc[nH]c12", "fitted potency (µM)": "44.38", "curve": "activator, partial curve, poor fit"}
{"smiles": "CC(C)Cc1ccc(C(C)C(=O)O)cc1", "stereo": "stereo unspecified", "fitted potency (µM)": "7.493", "curve": "activator, single point"}
{"smiles": "COCCNCc1ccc(-c2cc3nccc(Oc4ccc(NC(=S)NC(=O)Cc5ccc(F)cc5)cc4F)c3s2)nc1", "fitted potency (µM)": "33.81", "curve": "activator, single point"}
{"smiles": "O=c1cc(-c2cccc3c2Sc2ccccc2S3)oc(N2CCOCC2)c1", "fitted potency (µM)": "17.21", "curve": "activator, partial curve, poor fit"}
{"smiles": "C=C(C(=O)O)[C@H]1C[C@]2(C)C(=O)CC[C@]23O[C@H]1C[C@@H]3C", "fitted potency (µM)": "37.93", "curve": "activator, single point"}
{"smiles": "O=[N+]([O-])c1ccc2c(c1)S(=O)(=O)C=C2", "fitted potency (µM)": "3.013", "curve": "activator, partial curve, poor fit"}
{"smiles": "Cc1ccc2nc(NCCN)c3ncc(C)n3c2c1", "fitted potency (µM)": "30.61", "curve": "activator, partial curve, poor fit"}
{"smiles": "COc1ccccc1-c1cccc(-c2c(O)c3cc(C#N)c(Cl)cc3[nH]c2=O)c1", "fitted potency (µM)": "31.41", "curve": "activator, single point"}
{"smiles": "C[C@H]1C/C=C/[C@H]2[C@@H]3O[C@]3(C)[C@@H](C)[C@H]3[C@H](Cc4ccccc4)NC(=O)[C@]32OC(=O)O/C=C/[C@@](C)(O)C1=O", "fitted potency (µM)": "0.4654", "curve": "activator, partial curve, poor fit"}
{"smiles": "O=Nc1c(-c2c(O)[nH]c3ccccc23)[nH]c2ccccc12", "fitted potency (µM)": "5.358", "curve": "activator, single point"}
{"smiles": "CNCc1ccc(C)c(NC(=O)c2ccc(Nc3nc(-c4ccccc4)c4ccccc4n3)cc2)c1", "fitted potency (µM)": "33.81", "curve": "activator, single point"}
{"smiles": "COCCOC(=O)C1=C(C)NC2=C(C(=O)CC(c3ccccc3OC)C2)C1c1cccc(O)c1", "stereo": "stereo unspecified", "fitted potency (µM)": "37.93", "curve": "activator, single point"}
{"smiles": "COc1ccc(CC(NC(C)=O)C(=O)O)cc1", "stereo": "stereo unspecified", "fitted potency (µM)": "0.0213", "curve": "activator, full curve, poor fit"}
{"smiles": "Cc1[nH]c(/C=C2\\C(=O)Nc3ccc(F)cc32)c(C)c1C(=O)NC[C@H](O)CN1CCOCC1", "fitted potency (µM)": "3.013", "curve": "activator, partial curve, poor fit"}
{"smiles": "CCc1nc(-c2cccc(C)c2)c(-c2ccnc(NC(=O)c3ccccc3)c2)s1", "fitted potency (µM)": "0.6853", "curve": "activator, full curve, poor fit"}
{"smiles": "COc1ccccc1OCCNCC(O)COc1cccc2[nH]c3ccccc3c12", "stereo": "stereo unspecified", "fitted potency (µM)": "38.93", "curve": "activator, single point"}
{"smiles": "CCCCc1ccc2nc(NC(=O)OC)[nH]c2c1", "fitted potency (µM)": "0.0769", "curve": "activator, full curve, poor fit"}

The first 2 entries again:

Result for CCN1/C(=C/C(C)=O)Sc2ccc(OC)cc21 was fitted potency 2.686 µM (activator, full curve, poor fit).
Result for Cn1cnc([N+](=O)[O-])c1Sc1ncnc2nc[nH]c12 was fitted potency 44.38 µM (activator, partial curve, poor fit).

From PubChem BioAssay record AID2060322 (NCATS, 2025).